Measured values reported in the supplement of paper PMC4604168 (melanoma cell lines).
This is one part of the list. Repeats are few or missing, and single values can be far off.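 Imaging used 1,536-well plates; nuclei positive for cleaved PARP by antibody were divided by total DNA-stained nuclei to yield the apoptosis fraction. Doses for screening kept most cells viable, and cell lines differ markedly in resting and induced cleaved-PARP levels.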

Experiments:
Experiment in all cases: cleaved PARP positive nuclei fraction relative to DMSO control; melanoma cells; higher = more apoptosis
Conditions in all cases: library dose: low library concentration; 72 h
WM115 = system: WM115
WM1716 = system: WM1716
WM1745 = system: WM1745
WM3526 = system: WM3526
WM3619 = system: WM3619
WM451Lu = system: WM451Lu

SMILES	cleaved PARP positive nuclei fraction (WM115) [%]	cleaved PARP positive nuclei fraction (WM1716) [%]	cleaved PARP positive nuclei fraction (WM1745) [%]	cleaved PARP positive nuclei fraction (WM3526) [%]	cleaved PARP positive nuclei fraction (WM3619) [%]	cleaved PARP positive nuclei fraction (WM451Lu) [%]
COc1cc2ncnc(Nc3ccc(Oc4ccccc4)cc3)c2cc1OC + Cc1cc([N+](=O)[O-])ccc1NS(=O)(=O)c1cc(Cl)ccc1Cl [FH535] (first compound 2 µM, partner dose 1 µM)	35.1	76	128	75.8	130	31.8
O=c1cc(-c2cccc3c2Sc2ccccc2S3)oc(N2CCOCC2)c1 + CC(C)CCN1c2nc(Nc3cc(F)c(O)c(F)c3)ncc2N(C)C(=O)C1C [BID1870] (first compound 1 µM, partner dose 0.2 µM)	102	61.3	110	83.7	102	105
NCC(=O)Nc1ccc(-n2nc(C(F)(F)F)cc2-c2ccc3c(ccc4ccccc43)c2)cc1 + CCCCCCCCCCCC1=C(O)C(=O)C=C(O)C1=O [Embelin] (first compound 1 µM, partner dose 1.2 µM)	145	91.4	111	139	90.9	122
N#Cc1c(O)c2c(-c3ccc(-c4ccccc4O)cc3)csc2[nH]c1=O + COc1cc2ncnc(Nc3ccc(Oc4ccccc4)cc3)c2cc1OC [SrcI1] (first compound 2 µM, partner dose 2 µM)	67	127	114	65.7	70.8	105
COc1cc2c(Oc3ccc4[nH]c(C)cc4c3F)ncnc2cc1OCCCN1CCCC1 [cediranib] + COc1ccc2c(c1)CCC1C2CCC2(C)C(NCCCCCCN3C(=O)C=CC3=O)CCC12 [U73122] (first compound 0.4 µM, partner dose 0.4 µM)	120	157	100	124	91.2	57.9
NCC(=O)Nc1ccc(-n2nc(C(F)(F)F)cc2-c2ccc3c(ccc4ccccc43)c2)cc1 + COC(=O)c1sccc1S(=O)(=O)Nc1ccc(Nc2ccccc2)cc1OC [GSK0660] (first compound 1 µM, partner dose 1 µM)	128	78.6	101	78.9	82.6	98.3
N#Cc1c(O)c2c(-c3ccc(-c4ccccc4O)cc3)csc2[nH]c1=O + O=S(=O)(c1ccccc1)N(CC(F)(F)F)c1ccc(C(O)(C(F)(F)F)C(F)(F)F)cc1 [T0901317] (first compound 2 µM, partner dose 1.4 µM)	52	96	120	308	105	207
NCC(=O)Nc1ccc(-n2nc(C(F)(F)F)cc2-c2ccc3c(ccc4ccccc43)c2)cc1 + COc1cc2c(Oc3ccc4[nH]c(C)cc4c3F)ncnc2cc1OCCCN1CCCC1 [cediranib] (first compound 1 µM, partner dose 0.4 µM)	81.9	140	94.7	123	86.5	197
COc1ccc(COc2ccc(Cc3cnc(N)nc3N)cc2OC)cc1 + O=c1cc(-c2cccc3c2Sc2ccccc2S3)oc(N2CCOCC2)c1 [KU55933] (first compound 1 µM, partner dose 1 µM)	103	62.1	114	75.7	75.4	61.1
O=C(O)c1ccc(-c2c[nH]c3ncc(-c4ccccc4)cc23)cc1C1CCCC1 + CN(NC(=O)CC(=O)NN(C)C(=S)c1ccccc1)C(=S)c1ccccc1 [STA4783] (first compound 0.16 µM, partner dose 0.006 µM)	353	126	198	69.6	203	124
CN(C)S(=O)(=O)c1ccc2c(c1)/C(=C/c1cc3c([nH]1)CCCC3)C(=O)N2 + CN(NC(=O)CC(=O)NN(C)C(=S)c1ccccc1)C(=S)c1ccccc1 [STA4783] (first compound 0.4 µM, partner dose 0.006 µM)	89.2	120	345	70.6	148	29.3
N#Cc1c(O)c2c(-c3ccc(-c4ccccc4O)cc3)csc2[nH]c1=O + COc1ccc(COc2ccc(Cc3cnc(N)nc3N)cc2OC)cc1 [GW2580] (first compound 2 µM, partner dose 1 µM)	65.4	78.1	121	63.8	156	200
N#Cc1c(O)c2c(-c3ccc(-c4ccccc4O)cc3)csc2[nH]c1=O + CCCCCCCCCCCC1=C(O)C(=O)C=C(O)C1=O [Embelin] (first compound 2 µM, partner dose 1.2 µM)	36.5	29.6	111	123	53.2	72.4
CCN(CC)CCCCNc1ncc2cc(-c3cc(OC)cc(OC)c3)c(NC(=O)NC(C)(C)C)nc2n1 + CCCCCCCCCCCC1=C(O)C(=O)C=C(O)C1=O [Embelin] (first compound 0.1 µM, partner dose 1.2 µM)	51	31.8	103	125	72.6	184
O=C(O)c1ccc(-c2c[nH]c3ncc(-c4ccccc4)cc23)cc1C1CCCC1 + c1cc(-c2cnn3cc(-c4ccc(OCCN5CCCCC5)cc4)cnc23)ccn1 [Dorsomorphin] (first compound 0.16 µM, partner dose 0.4 µM)	131	80.5	102	143	64.5	40.1
CN(NC(=O)CC(=O)NN(C)C(=S)c1ccccc1)C(=S)c1ccccc1 + Oc1nc(-c2ccc(C(F)(F)F)cc2)nc2c1CSCC2 [XAV939] (first compound 0.006 µM, partner dose 2 µM)	87.8	90.9	128	78.6	97	148
CN(C)S(=O)(=O)c1ccc2c(c1)/C(=C/c1cc3c([nH]1)CCCC3)C(=O)N2 + COc1ccc(COc2ccc(Cc3cnc(N)nc3N)cc2OC)cc1 [GW2580] (first compound 0.4 µM, partner dose 1 µM)	58.3	97.6	108	196	86.7	27.3
CCN(CC)CCCCNc1ncc2cc(-c3cc(OC)cc(OC)c3)c(NC(=O)NC(C)(C)C)nc2n1 + Oc1nc(-c2ccc(C(F)(F)F)cc2)nc2c1CSCC2 [XAV939] (first compound 0.1 µM, partner dose 2 µM)	194	190	116	130	85.2	102
COc1ccc(-c2ccc3c(N4CCOCC4)nc(N4C[C@@H](C)O[C@@H](C)C4)nc3n2)cc1CO + O=c1cc(-c2cccc3c2Sc2ccccc2S3)oc(N2CCOCC2)c1 [KU55933] (first compound 0.02 µM, partner dose 1 µM)	59.8	28.5	99	76.5	205	249
O=S(=O)(c1ccccc1)N(CC(F)(F)F)c1ccc(C(O)(C(F)(F)F)C(F)(F)F)cc1 + Cc1cc([N+](=O)[O-])ccc1NS(=O)(=O)c1cc(Cl)ccc1Cl [FH535] (first compound 1.4 µM, partner dose 1 µM)	154	85.5	136	77.6	79.8	137
COC(=O)c1sccc1S(=O)(=O)Nc1ccc(Nc2ccccc2)cc1OC + CCCCCCCCCCCC1=C(O)C(=O)C=C(O)C1=O [Embelin] (first compound 1 µM, partner dose 1.2 µM)	138	79	101	56.5	73.3	52.8
COc1cc2c(Oc3ccc4[nH]c(C)cc4c3F)ncnc2cc1OCCCN1CCCC1 [cediranib] + COc1ccc(-c2ccc3c(N4CCOCC4)nc(N4C[C@@H](C)O[C@@H](C)C4)nc3n2)cc1CO [KU0063794] (first compound 0.4 µM, partner dose 0.02 µM)	69.3	180	86.9	59.4	174	115
CN(C)S(=O)(=O)c1ccc2c(c1)/C(=C/c1cc3c([nH]1)CCCC3)C(=O)N2 + COc1cc2ncnc(Nc3ccc(Oc4ccccc4)cc3)c2cc1OC [SrcI1] (first compound 0.4 µM, partner dose 2 µM)	88.2	72.2	110	160	91.4	121
Cc1cc([N+](=O)[O-])ccc1NS(=O)(=O)c1cc(Cl)ccc1Cl + Oc1nc(-c2ccc(C(F)(F)F)cc2)nc2c1CSCC2 [XAV939] (first compound 1 µM, partner dose 2 µM)	120	183	214	328	76	55.9
Cc1cc([N+](=O)[O-])ccc1NS(=O)(=O)c1cc(Cl)ccc1Cl + Cn1cc(/C=C2\C(=O)Nc3cccnc32)c2ccccc21 [GW441756] (first compound 1 µM, partner dose 0.4 µM)	96.3	98.8	108	127	109	84.2
CN(NC(=O)CC(=O)NN(C)C(=S)c1ccccc1)C(=S)c1ccccc1 + Cn1cc(/C=C2\C(=O)Nc3cccnc32)c2ccccc21 [GW441756] (first compound 0.006 µM, partner dose 0.4 µM)	197	112	311	163	147	104
CN(NC(=O)CC(=O)NN(C)C(=S)c1ccccc1)C(=S)c1ccccc1 + Cc1cc([N+](=O)[O-])ccc1NS(=O)(=O)c1cc(Cl)ccc1Cl [FH535] (first compound 0.006 µM, partner dose 1 µM)	126	139	281	58.4	224	204

Retrieved one by one from the list above:
SMILES	cleaved PARP positive nuclei fraction (WM115) [%]	cleaved PARP positive nuclei fraction (WM1716) [%]	cleaved PARP positive nuclei fraction (WM1745) [%]	cleaved PARP positive nuclei fraction (WM3526) [%]	cleaved PARP positive nuclei fraction (WM3619) [%]	cleaved PARP positive nuclei fraction (WM451Lu) [%]
N#Cc1c(O)c2c(-c3ccc(-c4ccccc4O)cc3)csc2[nH]c1=O + COc1ccc(COc2ccc(Cc3cnc(N)nc3N)cc2OC)cc1 [GW2580] (first compound 2 µM, partner dose 1 µM)	65.4	78.1	121	63.8	156	200
CN(C)S(=O)(=O)c1ccc2c(c1)/C(=C/c1cc3c([nH]1)CCCC3)C(=O)N2 + CN(NC(=O)CC(=O)NN(C)C(=S)c1ccccc1)C(=S)c1ccccc1 [STA4783] (first compound 0.4 µM, partner dose 0.006 µM)	89.2	120	345	70.6	148	29.3
